The target in assay [1] is CadC DNA-binding domain (amino acids 1-107) (E. coli) (UniProt P23890). The experiment in a line: SAXS; CadC 1-107 alone at 200 uM; 20 mM BisTris, 150 mM NaCl, pH 6.5; molecular weight from the Porod volume; both purified.
The target is the same in assay [2]. The experiment in a line: crystal structure; CadC 1-107 alone; one molecule in the asymmetric unit; 10 mM MES pH 6.5, 10 mM zinc sulphate, 27.5% PEG550 MME; both purified.
Assay [3] has the same target. Nature of the assay: NMR 15N relaxation (tumbling correlation time); CadC 1-107 alone; 20 mM BisTris, 150 mM NaCl, pH 6.5, 10% D2O; 298 K, 600 MHz; both purified.

These are yes or no findings as the source states them, for the method shown.

B1: CadC DNA-binding domain (amino acids 1-107) (domain or fragment, UniProt P23890 1-107)
chain: MQQPVVRVGEWLVTPSINQISRNGRQLTLEPRLIDLLVFFAQHSGEVLSRDELIDNVWKRSIVTNHVVTQSISELRKSLKDNDEDSPVYIATVPKRGYKLMVPVIWY
Take B1: the binding entry in assay [1] is “no binding (tested: 200 μM)”; in assay [2], “no binding”; in assay [3], “no binding”.
